Results are given in words; binding and its absence hold for the method and conditions named. In cells and extracts the contact can be indirect. Binding can be weak; no strength is given.
Experiments:
Experiment in all cases: pull-down; GST-SH3 domains (5-20 ug) on glutathione beads incubated 2 h at 4°C with lysate of HEK293 cells expressing the tagged protein; 20 mM Tris-HCl pH 7.5, 0.5% NP40, 150 mM NaCl, 10% glycerol, 1 mM Na3VO4; immunoblot with antibodies against tags; only the target purified
[1] = target: GST-fused SH3B domain of ITSN1 (human) (UniProt Q15811)
[2] = target: GST-fused SH3D domain of ITSN1 (human) (UniProt Q15811)
[3] = target: GST-fused SH3A domain of ITSN1 (human) (UniProt Q15811)

Sequences of proteins named here, by UniProt entry; tags and fusion partners are left off. A change or cut given only in a name is not applied to a line headed by its entry.
UniProt Q15811: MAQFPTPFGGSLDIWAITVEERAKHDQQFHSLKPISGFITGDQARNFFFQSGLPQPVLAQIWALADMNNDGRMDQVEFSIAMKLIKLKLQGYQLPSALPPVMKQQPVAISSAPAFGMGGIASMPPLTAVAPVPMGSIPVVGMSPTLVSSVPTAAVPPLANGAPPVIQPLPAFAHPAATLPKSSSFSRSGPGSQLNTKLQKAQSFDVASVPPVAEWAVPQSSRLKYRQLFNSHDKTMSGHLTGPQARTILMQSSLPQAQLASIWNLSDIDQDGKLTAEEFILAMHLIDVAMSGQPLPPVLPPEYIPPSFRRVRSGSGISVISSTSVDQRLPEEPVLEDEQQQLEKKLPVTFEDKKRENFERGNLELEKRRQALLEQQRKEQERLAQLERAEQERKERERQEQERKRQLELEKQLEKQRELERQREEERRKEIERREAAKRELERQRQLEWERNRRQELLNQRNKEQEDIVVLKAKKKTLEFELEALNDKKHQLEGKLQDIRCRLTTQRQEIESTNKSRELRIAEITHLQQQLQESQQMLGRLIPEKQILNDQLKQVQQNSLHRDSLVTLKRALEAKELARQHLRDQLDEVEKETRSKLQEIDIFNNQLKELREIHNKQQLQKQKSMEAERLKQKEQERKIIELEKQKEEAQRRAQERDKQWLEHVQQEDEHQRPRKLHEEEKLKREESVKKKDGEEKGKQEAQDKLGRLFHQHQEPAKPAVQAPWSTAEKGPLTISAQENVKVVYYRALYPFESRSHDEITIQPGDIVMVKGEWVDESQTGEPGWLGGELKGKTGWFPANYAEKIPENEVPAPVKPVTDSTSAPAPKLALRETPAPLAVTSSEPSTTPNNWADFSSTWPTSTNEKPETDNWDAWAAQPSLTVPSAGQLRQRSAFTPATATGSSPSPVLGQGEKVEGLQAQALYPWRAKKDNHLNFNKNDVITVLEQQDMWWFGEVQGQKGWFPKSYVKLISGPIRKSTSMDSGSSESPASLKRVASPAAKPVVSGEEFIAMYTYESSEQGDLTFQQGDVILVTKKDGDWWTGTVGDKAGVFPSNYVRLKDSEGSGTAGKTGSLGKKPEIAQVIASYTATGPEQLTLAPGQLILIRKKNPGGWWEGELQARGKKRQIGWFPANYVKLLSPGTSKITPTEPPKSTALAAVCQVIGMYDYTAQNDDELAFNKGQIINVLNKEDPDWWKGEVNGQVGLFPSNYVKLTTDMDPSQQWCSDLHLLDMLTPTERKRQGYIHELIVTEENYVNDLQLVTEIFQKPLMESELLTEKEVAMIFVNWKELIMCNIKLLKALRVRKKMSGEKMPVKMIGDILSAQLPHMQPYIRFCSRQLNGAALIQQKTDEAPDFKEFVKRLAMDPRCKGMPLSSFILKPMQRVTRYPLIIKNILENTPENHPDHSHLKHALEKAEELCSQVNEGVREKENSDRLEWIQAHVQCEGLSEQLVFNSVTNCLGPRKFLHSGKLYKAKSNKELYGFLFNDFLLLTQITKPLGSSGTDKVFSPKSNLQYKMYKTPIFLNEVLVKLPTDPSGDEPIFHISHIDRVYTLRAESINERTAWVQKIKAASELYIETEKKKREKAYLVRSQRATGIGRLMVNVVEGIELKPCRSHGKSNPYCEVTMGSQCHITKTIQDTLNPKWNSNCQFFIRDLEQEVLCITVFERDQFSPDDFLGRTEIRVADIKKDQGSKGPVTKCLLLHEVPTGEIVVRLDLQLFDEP

Measured: binding

B1: Omni-CdGAP central domain (residues 174-683) (domain or fragment, UniProt Q2M1Z3 174-683)
chain: WAPNLLRSKEIEATGCNGDAAFLAVRVQQVVIEFILNHVDQIFNNGAPGSLENDENRPIMKSLTLPALSLPMKLVSLEEAQARSLATNHPARKERRENSLPEIVPPMGTLFHTVLELPDNKRKLSSKSKKWKSIFNLGRSGSDSKSKLSRNGSVFVRGQRLSVEKATIRPAKSMDSLCSVPVEGKETKGNFNRTVTTGGFFIPATKMHSTGTGSSCDLTKQEGEWGQEGMPPGAEGGFDVSSDRSHLQGAQARPPPEQLKVFRPVEDPESEQTAPKMLGMFYTSNDSPSKSVFTSSLFQMEPSPRNQRKALNISEPFAVSVPLRVSAVISTNSTPCRTPPKELQSLSSLEEFSFHGSESGGWPEEEKPLGAETSAASVPKKAGLEDAKAVPEAPGTVECSKGLSQEPGAHLEEKKTPESSLSSQHLNELEKRPNPEKVVEEGREAGEMESSTLQESPRARAEAVLLHEMDEDDLANALIWPEIQQELKIIESEEELSSLPPPALKTSPIQ
binds: [1] | [2] | [3]

Source: publication PMC3723668
